The other results are listed elsewhere or left out. Most entries show no effect beyond the scatter of the controls.

Sequences of proteins named here, by UniProt entry; tags and fusion partners are left off. A change or cut given only in a name is not applied to a line headed by its entry.
UniProt Q96HE9: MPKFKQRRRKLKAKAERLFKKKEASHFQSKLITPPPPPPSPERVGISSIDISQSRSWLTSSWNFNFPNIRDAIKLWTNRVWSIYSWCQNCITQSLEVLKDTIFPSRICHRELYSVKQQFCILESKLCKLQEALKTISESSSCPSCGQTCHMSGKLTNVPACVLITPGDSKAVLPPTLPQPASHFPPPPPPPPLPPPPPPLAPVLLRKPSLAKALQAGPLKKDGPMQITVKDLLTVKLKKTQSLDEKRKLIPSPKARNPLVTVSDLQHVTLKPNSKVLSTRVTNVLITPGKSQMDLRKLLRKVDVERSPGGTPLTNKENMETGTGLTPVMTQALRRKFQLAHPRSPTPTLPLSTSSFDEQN
UniProt Q96FF7: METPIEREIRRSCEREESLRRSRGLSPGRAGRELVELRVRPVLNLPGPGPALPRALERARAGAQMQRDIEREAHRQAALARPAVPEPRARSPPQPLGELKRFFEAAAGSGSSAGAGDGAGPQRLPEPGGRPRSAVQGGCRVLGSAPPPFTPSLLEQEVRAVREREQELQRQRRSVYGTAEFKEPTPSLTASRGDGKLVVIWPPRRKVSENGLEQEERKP
UniProt Q96L91, whole entry: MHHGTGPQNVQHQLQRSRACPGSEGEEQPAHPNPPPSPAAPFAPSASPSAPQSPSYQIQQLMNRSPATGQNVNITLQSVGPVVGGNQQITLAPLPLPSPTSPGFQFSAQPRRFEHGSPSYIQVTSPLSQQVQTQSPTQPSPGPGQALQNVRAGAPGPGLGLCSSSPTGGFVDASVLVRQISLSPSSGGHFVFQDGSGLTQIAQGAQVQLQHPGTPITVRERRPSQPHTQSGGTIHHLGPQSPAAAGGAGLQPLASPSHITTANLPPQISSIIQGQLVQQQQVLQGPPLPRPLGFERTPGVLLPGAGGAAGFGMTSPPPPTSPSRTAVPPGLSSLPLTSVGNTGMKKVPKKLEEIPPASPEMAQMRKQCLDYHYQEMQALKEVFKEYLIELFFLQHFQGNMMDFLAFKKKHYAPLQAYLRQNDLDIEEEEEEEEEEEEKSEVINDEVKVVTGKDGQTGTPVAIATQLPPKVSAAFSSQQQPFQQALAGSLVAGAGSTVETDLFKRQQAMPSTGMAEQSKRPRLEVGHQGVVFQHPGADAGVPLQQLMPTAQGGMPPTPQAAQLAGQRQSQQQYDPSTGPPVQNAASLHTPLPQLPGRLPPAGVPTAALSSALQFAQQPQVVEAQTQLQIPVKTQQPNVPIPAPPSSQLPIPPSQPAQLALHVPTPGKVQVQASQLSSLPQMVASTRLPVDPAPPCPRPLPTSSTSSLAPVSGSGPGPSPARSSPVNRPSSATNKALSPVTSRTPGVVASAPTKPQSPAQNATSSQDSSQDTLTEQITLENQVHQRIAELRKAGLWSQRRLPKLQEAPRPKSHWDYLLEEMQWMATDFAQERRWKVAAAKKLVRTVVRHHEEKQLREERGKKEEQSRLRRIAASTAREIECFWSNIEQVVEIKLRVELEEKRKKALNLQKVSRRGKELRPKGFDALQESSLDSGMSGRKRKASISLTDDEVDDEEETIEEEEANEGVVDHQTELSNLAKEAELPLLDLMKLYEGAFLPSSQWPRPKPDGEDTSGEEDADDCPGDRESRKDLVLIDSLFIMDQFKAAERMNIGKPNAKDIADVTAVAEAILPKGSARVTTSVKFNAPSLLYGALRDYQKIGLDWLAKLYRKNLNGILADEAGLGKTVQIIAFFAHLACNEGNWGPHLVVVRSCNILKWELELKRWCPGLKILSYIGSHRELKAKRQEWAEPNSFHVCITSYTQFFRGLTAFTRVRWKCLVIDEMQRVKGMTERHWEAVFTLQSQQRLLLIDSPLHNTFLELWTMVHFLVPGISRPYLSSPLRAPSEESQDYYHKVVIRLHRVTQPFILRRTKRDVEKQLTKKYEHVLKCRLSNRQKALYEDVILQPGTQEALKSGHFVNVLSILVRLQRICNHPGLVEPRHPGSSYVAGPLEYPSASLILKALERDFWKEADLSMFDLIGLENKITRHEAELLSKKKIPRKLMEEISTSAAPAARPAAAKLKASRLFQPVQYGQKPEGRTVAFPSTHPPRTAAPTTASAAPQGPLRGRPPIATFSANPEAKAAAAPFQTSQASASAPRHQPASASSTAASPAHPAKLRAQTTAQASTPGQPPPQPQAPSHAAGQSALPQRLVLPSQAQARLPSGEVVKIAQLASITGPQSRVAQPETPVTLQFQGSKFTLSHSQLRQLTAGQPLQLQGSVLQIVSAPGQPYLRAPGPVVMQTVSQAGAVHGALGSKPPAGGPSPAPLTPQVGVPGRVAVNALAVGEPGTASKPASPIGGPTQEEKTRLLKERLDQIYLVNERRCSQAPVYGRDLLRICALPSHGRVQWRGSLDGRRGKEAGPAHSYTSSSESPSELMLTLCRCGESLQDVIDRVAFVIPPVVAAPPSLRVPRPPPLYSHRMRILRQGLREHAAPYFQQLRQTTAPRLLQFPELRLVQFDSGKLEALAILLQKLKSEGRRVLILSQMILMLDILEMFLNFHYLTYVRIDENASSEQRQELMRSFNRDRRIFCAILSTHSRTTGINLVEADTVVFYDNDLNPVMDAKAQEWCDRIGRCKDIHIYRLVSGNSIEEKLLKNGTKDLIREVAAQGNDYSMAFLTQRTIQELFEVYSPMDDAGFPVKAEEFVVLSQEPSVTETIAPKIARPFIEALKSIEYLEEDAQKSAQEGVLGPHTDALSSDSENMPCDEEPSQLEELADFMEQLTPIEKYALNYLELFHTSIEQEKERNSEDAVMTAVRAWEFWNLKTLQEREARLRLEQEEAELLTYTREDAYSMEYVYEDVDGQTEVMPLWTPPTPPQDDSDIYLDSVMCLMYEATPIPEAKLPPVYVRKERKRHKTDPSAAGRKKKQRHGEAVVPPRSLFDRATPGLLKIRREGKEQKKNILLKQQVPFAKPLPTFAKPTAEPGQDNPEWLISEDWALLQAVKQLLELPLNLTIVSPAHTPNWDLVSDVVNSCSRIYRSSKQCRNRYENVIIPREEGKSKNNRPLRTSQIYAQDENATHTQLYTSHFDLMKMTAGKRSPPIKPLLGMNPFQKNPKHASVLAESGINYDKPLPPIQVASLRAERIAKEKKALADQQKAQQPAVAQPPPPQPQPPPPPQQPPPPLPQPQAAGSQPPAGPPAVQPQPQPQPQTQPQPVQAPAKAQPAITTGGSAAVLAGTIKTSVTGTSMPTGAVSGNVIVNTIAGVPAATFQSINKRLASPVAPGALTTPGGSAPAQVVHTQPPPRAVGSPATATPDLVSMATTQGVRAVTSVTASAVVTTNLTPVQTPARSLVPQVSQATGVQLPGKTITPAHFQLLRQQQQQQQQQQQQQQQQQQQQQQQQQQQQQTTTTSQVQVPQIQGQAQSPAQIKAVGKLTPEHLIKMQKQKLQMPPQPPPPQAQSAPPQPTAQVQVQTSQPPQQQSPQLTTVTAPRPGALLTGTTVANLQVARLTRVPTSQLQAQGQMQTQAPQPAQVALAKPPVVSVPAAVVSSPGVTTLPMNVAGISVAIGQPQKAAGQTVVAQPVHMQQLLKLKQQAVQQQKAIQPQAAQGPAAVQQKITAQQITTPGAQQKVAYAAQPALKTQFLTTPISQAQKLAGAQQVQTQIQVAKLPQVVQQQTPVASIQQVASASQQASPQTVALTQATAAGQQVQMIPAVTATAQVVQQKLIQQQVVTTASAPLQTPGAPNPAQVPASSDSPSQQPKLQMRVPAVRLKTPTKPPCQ
UniProt Q96K80: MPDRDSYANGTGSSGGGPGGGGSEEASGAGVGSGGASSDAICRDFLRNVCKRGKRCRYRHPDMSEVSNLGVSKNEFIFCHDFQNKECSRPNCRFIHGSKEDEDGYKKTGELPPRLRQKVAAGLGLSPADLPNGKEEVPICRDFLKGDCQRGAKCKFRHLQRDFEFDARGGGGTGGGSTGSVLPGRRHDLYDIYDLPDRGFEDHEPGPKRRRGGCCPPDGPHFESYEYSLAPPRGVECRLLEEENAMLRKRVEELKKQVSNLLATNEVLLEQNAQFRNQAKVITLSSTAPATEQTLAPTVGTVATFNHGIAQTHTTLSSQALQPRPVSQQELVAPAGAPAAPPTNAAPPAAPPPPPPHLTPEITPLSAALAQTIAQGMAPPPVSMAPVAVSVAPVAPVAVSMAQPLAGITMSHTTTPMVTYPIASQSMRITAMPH
UniProt Q96MW5: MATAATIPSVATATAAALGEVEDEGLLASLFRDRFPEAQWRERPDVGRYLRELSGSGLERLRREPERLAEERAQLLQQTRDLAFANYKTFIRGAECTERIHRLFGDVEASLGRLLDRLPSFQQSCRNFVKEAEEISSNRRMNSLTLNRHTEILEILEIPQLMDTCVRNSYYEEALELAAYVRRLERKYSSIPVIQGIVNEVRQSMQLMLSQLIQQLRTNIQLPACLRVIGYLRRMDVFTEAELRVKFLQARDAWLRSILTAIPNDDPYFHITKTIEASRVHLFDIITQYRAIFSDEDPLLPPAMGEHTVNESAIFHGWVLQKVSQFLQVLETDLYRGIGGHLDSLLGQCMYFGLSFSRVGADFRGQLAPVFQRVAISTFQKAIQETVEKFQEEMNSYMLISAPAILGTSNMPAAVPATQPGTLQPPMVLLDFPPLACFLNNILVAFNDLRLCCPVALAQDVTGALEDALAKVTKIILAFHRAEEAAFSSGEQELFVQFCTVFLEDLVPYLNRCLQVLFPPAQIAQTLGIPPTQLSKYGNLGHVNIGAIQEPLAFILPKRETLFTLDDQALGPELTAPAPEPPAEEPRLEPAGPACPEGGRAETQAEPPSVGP
UniProt Q96HC4: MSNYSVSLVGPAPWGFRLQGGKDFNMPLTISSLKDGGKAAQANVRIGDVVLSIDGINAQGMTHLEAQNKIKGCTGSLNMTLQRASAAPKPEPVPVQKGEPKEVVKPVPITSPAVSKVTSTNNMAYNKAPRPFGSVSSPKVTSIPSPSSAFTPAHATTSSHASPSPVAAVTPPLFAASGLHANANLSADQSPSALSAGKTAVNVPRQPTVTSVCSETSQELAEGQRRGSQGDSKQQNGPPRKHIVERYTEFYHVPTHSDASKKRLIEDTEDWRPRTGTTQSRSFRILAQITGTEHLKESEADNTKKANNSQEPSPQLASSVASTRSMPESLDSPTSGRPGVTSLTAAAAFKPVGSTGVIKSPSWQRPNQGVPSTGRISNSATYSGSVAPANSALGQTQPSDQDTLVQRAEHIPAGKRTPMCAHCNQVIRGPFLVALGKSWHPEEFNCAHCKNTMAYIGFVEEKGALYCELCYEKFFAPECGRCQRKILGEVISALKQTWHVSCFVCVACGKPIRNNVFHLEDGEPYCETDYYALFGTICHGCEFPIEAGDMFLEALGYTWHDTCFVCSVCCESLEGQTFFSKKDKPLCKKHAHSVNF
UniProt Q96JS3: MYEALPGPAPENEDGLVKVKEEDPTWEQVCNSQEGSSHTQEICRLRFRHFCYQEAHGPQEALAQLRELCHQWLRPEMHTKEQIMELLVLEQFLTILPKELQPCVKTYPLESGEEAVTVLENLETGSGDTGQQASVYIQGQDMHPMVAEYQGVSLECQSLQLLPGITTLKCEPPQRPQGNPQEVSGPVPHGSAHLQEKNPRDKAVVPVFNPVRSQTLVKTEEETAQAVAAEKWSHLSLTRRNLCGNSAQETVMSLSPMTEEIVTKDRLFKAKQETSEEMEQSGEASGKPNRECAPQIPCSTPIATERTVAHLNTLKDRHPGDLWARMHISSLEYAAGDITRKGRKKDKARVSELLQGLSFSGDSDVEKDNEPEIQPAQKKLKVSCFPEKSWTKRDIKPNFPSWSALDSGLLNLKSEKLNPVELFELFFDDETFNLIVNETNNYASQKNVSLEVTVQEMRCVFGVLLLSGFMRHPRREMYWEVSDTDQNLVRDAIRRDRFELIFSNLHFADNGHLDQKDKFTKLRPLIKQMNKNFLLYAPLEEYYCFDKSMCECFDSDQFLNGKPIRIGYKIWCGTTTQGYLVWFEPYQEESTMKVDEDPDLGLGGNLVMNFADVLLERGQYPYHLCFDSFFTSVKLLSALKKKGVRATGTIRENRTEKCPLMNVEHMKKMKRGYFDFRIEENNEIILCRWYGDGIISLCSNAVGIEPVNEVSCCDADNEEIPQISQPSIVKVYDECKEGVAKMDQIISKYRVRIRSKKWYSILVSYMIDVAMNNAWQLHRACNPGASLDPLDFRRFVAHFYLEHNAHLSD
UniProt Q96KS0, whole entry, looked up: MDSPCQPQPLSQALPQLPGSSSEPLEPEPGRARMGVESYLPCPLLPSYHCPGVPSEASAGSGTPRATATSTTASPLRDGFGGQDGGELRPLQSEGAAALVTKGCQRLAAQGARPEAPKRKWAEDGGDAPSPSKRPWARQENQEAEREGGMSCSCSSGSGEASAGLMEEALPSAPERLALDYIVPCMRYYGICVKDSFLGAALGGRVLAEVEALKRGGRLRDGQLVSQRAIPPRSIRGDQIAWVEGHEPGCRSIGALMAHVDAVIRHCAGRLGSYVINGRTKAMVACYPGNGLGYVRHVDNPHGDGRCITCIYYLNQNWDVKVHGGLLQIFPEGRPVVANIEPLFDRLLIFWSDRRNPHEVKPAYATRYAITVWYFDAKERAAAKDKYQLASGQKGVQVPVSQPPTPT

Compound in the experiment: Cc1nc(Nc2ncc(C(=O)Nc3c(C)cccc3Cl)s2)cc(N2CCN(CCO)CC2)n1 [dasatinib]
As to the kind of experiment: log2 fold change of tryptic peptide abundance, ligand vs vehicle (limited proteolysis) (log2 ratio); higher = more trypsin-susceptible (destabilized). Particulars: ligand concentration: 5 uM; sample: K562 cleared lysate.
In the case of “UniProt Q96HE9 (peptide sequence: DGPMQITVK, peptide start residue: 222)”, the log2 fold change stood at 0.41. In the case of “MISP3 (peptide sequence: EREQELQR, peptide start residue: 163) (UniProt Q96FF7)”, the log2 fold change is -0.0718. As for “EP400 (peptide sequence: KAGLWSQR, peptide start residue: 790) (UniProt Q96L91)”, the log2 fold change came out at 0.303. As for “ZC3H10 (peptide sequence: FIHGSKEDEDGYKK, peptide start residue: 94) (UniProt Q96K80)”, the log2 fold change was -0.797. Consider “ALS2 (peptide sequence: YTFYKDPR, peptide start residue: 1036) (UniProt Q96Q42)”, for which the log2 fold change is -0.429. For “NARS2 (peptide sequence: FGSVPHGGFGMGFER, peptide start residue: 437) (UniProt Q96I59)” the value was -0.377. With “COG8 (peptide sequence: GQLAPVFQR, peptide start residue: 365) (UniProt Q96MW5)”, the log2 fold change is 0.186. Regarding “GFM1 (peptide sequence: DNSHPFVGLAFK, peptide start residue: 348) (UniProt Q96RP9)”, the log2 fold change turned out to be 0.358. To “PDLIM5 (peptide sequence: RLIEDTEDWRPR, peptide start residue: 263) (UniProt Q96HC4)” belongs 0.0825; to “UniProt Q96JS3 (peptide sequence: MHISSLEYAAGDITR, peptide start residue: 326)”, -0.18; to “EGLN2 (peptide sequence: LAAQGARPEAPK, peptide start residue: 107) (UniProt Q96KS0)”, 0.189.

Source of the values: the supplement of paper PMC12819154, “High-throughput peptide-centric local stability assay extends protein–ligand identification to membrane proteins, tissues and bacteria” (Nature Structural & Molecular Biology, 2025).
